Measurements published in the supplement of paper PMC6411743.
± gives the standard deviation of the averaged measurements. This is a selection; strong and weak results do not stand in their true shares.

Protein sequences, listed by entry. Tags and fused reporters are not part of them. Lines headed by an entry give the natural chain unless they say otherwise; changes in a name come on top.
UniProt Q14CX7, whole entry: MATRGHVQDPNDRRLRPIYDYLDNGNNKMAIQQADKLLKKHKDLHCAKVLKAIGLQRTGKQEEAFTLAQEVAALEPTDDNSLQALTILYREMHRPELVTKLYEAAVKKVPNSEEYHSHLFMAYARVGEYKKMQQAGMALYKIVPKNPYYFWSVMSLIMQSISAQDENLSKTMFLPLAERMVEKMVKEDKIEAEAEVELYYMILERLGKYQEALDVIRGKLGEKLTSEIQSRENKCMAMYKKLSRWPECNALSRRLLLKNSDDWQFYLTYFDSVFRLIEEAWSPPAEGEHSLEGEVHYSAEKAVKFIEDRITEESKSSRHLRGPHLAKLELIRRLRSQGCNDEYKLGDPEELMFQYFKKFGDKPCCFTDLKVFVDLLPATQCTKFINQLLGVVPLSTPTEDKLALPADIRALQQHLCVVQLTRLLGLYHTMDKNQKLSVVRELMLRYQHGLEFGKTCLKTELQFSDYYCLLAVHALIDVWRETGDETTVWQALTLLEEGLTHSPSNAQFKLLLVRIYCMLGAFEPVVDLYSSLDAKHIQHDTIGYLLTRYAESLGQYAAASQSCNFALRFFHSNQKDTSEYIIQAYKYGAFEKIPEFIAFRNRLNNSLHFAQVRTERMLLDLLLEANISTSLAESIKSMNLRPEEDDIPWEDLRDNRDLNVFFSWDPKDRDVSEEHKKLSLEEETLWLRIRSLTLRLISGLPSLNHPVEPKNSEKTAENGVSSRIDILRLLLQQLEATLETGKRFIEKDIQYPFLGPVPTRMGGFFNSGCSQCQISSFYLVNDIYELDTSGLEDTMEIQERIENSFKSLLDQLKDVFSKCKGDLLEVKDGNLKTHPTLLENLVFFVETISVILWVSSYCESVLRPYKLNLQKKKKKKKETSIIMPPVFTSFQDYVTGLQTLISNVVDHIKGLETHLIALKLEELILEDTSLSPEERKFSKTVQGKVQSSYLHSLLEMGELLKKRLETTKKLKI
UniProt Q14145, whole entry: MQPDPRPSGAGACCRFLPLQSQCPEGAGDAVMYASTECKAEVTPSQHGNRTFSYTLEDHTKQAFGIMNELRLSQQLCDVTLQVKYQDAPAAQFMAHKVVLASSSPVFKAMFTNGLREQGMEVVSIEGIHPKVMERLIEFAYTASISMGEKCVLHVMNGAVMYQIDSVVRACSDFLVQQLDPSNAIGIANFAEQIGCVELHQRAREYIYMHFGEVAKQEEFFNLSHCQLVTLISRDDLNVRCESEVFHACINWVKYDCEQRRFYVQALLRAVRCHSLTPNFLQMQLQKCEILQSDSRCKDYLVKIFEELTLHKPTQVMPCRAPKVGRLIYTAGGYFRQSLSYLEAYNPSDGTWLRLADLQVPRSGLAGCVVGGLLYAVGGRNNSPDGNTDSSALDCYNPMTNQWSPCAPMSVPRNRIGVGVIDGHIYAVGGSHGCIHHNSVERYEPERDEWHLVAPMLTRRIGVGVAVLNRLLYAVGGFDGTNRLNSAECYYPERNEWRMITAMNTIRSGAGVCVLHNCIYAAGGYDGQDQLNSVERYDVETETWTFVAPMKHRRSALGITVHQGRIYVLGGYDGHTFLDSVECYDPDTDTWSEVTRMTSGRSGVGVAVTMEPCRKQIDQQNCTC
UniProt Q13325: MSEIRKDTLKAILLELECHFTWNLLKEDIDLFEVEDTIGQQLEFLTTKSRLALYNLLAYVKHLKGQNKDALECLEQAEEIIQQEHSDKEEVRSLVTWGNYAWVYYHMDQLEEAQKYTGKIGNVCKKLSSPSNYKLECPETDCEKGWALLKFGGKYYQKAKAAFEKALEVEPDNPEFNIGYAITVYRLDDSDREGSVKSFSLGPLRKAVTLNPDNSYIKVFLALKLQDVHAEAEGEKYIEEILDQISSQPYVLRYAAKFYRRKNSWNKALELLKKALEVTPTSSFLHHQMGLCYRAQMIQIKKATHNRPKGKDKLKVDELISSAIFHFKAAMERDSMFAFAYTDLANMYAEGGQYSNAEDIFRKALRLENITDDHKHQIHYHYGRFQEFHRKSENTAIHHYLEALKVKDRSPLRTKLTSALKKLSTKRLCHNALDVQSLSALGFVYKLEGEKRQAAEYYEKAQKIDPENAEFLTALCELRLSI
UniProt Q13464: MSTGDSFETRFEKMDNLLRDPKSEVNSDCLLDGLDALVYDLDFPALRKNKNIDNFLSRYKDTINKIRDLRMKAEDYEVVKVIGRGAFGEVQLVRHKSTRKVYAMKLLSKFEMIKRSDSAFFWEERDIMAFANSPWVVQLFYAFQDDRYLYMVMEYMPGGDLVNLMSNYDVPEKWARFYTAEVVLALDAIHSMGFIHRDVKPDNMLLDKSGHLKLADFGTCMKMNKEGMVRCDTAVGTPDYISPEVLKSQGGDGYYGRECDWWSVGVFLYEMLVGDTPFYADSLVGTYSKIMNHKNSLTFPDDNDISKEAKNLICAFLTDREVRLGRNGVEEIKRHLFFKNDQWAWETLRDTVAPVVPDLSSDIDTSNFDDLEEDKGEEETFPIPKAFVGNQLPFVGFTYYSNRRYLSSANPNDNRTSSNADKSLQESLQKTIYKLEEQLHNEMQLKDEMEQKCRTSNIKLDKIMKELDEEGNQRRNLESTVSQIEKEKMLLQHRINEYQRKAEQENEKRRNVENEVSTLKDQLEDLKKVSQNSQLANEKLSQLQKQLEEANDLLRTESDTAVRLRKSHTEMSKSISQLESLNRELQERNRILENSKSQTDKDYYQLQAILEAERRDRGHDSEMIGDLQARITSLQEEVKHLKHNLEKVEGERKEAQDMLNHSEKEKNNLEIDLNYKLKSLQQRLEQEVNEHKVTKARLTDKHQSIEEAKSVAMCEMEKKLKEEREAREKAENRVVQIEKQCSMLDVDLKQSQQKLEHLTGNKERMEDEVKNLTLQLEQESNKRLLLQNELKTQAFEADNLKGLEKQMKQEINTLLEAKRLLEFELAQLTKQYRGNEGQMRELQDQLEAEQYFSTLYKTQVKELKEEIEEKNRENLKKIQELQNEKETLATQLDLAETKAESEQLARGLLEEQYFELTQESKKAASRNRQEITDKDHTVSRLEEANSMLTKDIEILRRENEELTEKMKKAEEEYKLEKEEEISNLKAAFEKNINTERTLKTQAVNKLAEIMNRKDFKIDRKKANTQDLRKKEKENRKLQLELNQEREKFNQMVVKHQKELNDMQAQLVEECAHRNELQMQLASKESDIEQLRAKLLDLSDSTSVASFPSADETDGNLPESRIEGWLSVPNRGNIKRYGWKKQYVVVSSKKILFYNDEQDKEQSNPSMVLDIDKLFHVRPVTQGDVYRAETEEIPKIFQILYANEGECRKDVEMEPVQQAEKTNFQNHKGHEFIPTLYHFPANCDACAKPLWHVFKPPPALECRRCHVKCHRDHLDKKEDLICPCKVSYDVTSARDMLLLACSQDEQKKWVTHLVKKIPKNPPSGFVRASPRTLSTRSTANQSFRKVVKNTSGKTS
UniProt Q14320: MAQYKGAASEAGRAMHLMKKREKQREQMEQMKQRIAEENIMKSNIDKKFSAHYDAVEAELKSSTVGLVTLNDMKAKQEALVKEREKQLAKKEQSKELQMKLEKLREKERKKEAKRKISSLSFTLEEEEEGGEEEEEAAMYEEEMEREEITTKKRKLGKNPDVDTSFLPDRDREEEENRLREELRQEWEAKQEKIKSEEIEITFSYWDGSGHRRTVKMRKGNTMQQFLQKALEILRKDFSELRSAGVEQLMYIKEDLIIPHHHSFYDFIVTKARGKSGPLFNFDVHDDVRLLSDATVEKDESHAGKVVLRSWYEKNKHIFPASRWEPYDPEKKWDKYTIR
UniProt Q13541: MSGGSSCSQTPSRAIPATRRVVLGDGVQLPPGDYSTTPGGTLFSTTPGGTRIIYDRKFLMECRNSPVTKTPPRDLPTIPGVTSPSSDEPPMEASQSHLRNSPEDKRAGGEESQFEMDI
UniProt Q13561, whole entry: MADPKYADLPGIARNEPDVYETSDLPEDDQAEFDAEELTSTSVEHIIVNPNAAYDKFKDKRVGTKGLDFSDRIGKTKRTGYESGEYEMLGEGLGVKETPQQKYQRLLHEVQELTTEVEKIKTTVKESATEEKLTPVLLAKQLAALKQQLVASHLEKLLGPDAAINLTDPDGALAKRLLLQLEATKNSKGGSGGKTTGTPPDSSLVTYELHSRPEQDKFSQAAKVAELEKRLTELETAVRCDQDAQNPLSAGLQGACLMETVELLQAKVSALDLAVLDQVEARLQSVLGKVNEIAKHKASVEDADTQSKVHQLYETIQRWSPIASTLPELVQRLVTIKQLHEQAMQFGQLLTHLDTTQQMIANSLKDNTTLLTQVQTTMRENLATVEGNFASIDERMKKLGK
UniProt Q15007: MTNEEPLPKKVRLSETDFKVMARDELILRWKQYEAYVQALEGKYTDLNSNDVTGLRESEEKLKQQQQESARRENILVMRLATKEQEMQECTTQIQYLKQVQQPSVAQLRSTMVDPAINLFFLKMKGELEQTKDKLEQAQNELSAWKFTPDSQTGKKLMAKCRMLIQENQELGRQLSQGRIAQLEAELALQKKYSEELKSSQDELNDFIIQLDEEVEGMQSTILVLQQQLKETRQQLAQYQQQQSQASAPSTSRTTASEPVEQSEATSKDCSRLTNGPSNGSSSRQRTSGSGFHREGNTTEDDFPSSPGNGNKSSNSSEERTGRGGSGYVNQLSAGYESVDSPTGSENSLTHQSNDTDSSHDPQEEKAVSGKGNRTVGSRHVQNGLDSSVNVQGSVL
UniProt Q08881: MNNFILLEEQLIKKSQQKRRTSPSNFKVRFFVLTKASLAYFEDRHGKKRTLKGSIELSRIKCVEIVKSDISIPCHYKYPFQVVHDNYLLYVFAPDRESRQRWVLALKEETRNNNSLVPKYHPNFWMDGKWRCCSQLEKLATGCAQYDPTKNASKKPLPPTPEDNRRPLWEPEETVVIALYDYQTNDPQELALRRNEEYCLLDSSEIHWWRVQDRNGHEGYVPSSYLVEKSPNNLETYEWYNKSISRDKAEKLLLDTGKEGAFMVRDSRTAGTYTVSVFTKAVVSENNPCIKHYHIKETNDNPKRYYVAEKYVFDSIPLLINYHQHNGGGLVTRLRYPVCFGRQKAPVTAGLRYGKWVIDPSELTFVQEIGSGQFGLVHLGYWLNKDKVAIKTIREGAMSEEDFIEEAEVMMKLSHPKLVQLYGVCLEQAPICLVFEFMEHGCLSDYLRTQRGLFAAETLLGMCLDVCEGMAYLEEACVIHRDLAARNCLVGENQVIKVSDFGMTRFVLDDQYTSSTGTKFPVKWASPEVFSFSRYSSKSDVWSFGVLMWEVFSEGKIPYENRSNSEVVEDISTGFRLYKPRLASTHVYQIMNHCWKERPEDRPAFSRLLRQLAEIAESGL
UniProt Q14161: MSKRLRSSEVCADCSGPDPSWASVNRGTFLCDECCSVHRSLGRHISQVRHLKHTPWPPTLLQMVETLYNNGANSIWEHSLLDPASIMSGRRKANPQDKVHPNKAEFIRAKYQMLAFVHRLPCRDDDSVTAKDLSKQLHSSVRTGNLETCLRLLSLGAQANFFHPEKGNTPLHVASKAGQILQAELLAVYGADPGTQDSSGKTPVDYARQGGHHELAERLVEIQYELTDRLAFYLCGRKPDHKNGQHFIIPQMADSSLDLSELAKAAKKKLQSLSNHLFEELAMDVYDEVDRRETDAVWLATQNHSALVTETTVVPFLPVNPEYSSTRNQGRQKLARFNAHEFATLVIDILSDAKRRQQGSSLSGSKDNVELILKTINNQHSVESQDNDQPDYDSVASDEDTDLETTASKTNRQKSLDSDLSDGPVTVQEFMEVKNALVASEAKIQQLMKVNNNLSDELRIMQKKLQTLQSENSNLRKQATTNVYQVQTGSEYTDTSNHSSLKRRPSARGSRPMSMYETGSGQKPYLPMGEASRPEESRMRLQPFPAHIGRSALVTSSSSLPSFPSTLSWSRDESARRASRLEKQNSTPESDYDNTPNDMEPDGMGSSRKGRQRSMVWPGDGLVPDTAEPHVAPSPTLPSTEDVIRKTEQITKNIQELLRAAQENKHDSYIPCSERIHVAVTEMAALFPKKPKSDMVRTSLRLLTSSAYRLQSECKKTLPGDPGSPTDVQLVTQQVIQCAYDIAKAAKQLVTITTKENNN
UniProt Q15084: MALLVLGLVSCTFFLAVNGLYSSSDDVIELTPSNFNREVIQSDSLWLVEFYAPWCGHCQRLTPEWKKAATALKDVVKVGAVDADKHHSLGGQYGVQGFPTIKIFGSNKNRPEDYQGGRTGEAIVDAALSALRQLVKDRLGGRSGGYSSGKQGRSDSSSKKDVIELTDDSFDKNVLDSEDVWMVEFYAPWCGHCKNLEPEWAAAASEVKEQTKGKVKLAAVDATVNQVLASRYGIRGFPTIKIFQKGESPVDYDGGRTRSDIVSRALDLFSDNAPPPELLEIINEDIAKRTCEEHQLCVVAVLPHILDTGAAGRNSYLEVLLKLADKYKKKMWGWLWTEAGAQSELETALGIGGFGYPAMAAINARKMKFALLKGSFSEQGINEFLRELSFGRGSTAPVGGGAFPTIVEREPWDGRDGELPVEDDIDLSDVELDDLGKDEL

The targets below were run with Nc1ncnc2c1ncn2[C@@H]1O[C@H](COP(=O)(O)OP(=O)(O)NP(=O)(O)O)[C@@H](O)[C@H]1O [adenylyl imidodiphosphate] (assay: NP40-soluble protein abundance relative to vehicle (solubility fold change) (ratio); higher = more soluble protein in presence of AMP-PNP). Settings: concentration: 1mM.
Method in brief: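 In three independent experiments, Jurkat crude lysate made by Dounce homogenisation was treated for 10 min at room temperature and then 3 min at 37 °C with eight concentrations ranging from 0.1 to 10 mM. It was then solubilised with 0.8% NP40 plus benzonase for 60 min at 4 °C and ultracentrifuged. The supernatant was TMT-labelled for LC-MS/MS, and each value is the fold change against the detergent-processed vehicle for the same replicate, using vsn-normalised intensities.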

Target	NP40-soluble protein abundance
ITPR2 (UniProt Q14571)	0.965 ± 0.036
MGAT5 (UniProt Q09328)	0.991 ± 0.024
UniProt Q14CX7	1.01 ± 0.022
LASP1 (UniProt Q14847)	1.033 ± 0.0059
KEAP1 (UniProt Q14145)	1.001 ± 0.0091
UniProt Q14CB8 and related entries	1 ± 0.039
UniProt Q13472 and related entries	0.995 ± 0.018
IFIT5 (UniProt Q13325)	0.967 ± 0.044
ROCK1 (UniProt Q13464)	1.03 ± 0.03
USP4 (UniProt Q13107)	1 ± 0.018
FAM50A (UniProt Q14320)	1 ± 0.028
EIF4EBP1 (UniProt Q13541)	0.949 ± 0.016
NFX1 (UniProt Q12986)	1.031 ± 0.0067
UniProt Q13428-3|Q13428-7|E7ETY2 and related entries	1.11 ± 0.056
GOLGA3 (UniProt Q08378)	1.03 ± 0.05
CHAF1B (UniProt Q13112)	1.004 ± 0.0095
UniProt Q12904	0.99 ± 0.095
UniProt Q13561 and related entries	0.995 ± 0.054

Target	NP40-soluble protein abundance
UniProt Q13191 and related entries	1.008 ± 0.0089
UniProt Q13459 and related entries	1.04 ± 0.068
MORC3 (UniProt Q14149)	1.04 ± 0.031
PDCL (UniProt Q13371)	0.966 ± 0.026
UniProt Q15013 and related entries	1.01 ± 0.02
UniProt Q14157 and related entries	1.04 ± 0.019
GAMT (UniProt Q14353)	1.02 ± 0.022
WTAP (UniProt Q15007)	1.06 ± 0.026
IQGAP2 (UniProt Q13576)	0.956 ± 0.027
UniProt Q13164	1.03 ± 0.018
ITK (UniProt Q08881)	0.934 ± 0.029
UniProt Q14161 and related entries	1.01 ± 0.03
GRAP (UniProt Q13588)	0.968 ± 0.026
UniProt Q12888 and related entries	1.01 ± 0.026
PRDX4 (UniProt Q13162)	0.963 ± 0.011
UniProt Q15084 and related entries	0.949 ± 0.019
TMEM115 (UniProt Q12893)	0.973 ± 0.022
UniProt Q13163 and related entries	0.968 ± 0.026

Same assay, conditions: concentration: 2mM

Target	NP40-soluble protein abundance
ITPR2 (UniProt Q14571)	0.922 ± 0.067
MGAT5 (UniProt Q09328)	1.01 ± 0.018
UniProt Q14CX7	0.983 ± 0.064
LASP1 (UniProt Q14847)	1.05 ± 0.078
KEAP1 (UniProt Q14145)	0.965 ± 0.048
UniProt Q14CB8 and related entries	1 ± 0.047
UniProt Q13472 and related entries	0.969 ± 0.039
IFIT5 (UniProt Q13325)	0.975 ± 0.054
ROCK1 (UniProt Q13464)	1.07 ± 0.05
USP4 (UniProt Q13107)	0.967 ± 0.044
FAM50A (UniProt Q14320)	1.01 ± 0.061
EIF4EBP1 (UniProt Q13541)	1.032 ± 0.008
NFX1 (UniProt Q12986)	1.07 ± 0.014
UniProt Q13428-3|Q13428-7|E7ETY2 and related entries	1.26 ± 0.077
GOLGA3 (UniProt Q08378)	1.06 ± 0.046
CHAF1B (UniProt Q13112)	1.01 ± 0.029
UniProt Q12904	1.01 ± 0.068
UniProt Q13561 and related entries	1.04 ± 0.028

Target	NP40-soluble protein abundance
UniProt Q13191 and related entries	1.04 ± 0.022
UniProt Q13459 and related entries	1.06 ± 0.1
MORC3 (UniProt Q14149)	1.04 ± 0.013
PDCL (UniProt Q13371)	0.973 ± 0.039
UniProt Q15013 and related entries	1.05 ± 0.024
UniProt Q14157 and related entries	1.12 ± 0.064
GAMT (UniProt Q14353)	1.01 ± 0.034
WTAP (UniProt Q15007)	1.1 ± 0.097
IQGAP2 (UniProt Q13576)	0.935 ± 0.022
UniProt Q13164	1 ± 0.017
ITK (UniProt Q08881)	0.827 ± 0.061
UniProt Q14161 and related entries	1.02 ± 0.022
GRAP (UniProt Q13588)	0.901 ± 0.098
UniProt Q12888 and related entries	1.05 ± 0.043
PRDX4 (UniProt Q13162)	0.917 ± 0.077
UniProt Q15084 and related entries	0.989 ± 0.021
TMEM115 (UniProt Q12893)	1.01 ± 0.038
UniProt Q13163 and related entries	1.01 ± 0.041

Same assay, conditions: concentration: 4mM

Target	NP40-soluble protein abundance
ITPR2 (UniProt Q14571)	0.965 ± 0.05
MGAT5 (UniProt Q09328)	1.02 ± 0.066
UniProt Q14CX7	1.02 ± 0.036
LASP1 (UniProt Q14847)	1.01 ± 0.03
KEAP1 (UniProt Q14145)	0.993 ± 0.014
UniProt Q14CB8 and related entries	1.03 ± 0.043
UniProt Q13472 and related entries	0.982 ± 0.017
IFIT5 (UniProt Q13325)	0.962 ± 0.057
ROCK1 (UniProt Q13464)	1.01 ± 0.028
USP4 (UniProt Q13107)	1 ± 0.046
FAM50A (UniProt Q14320)	0.982 ± 0.032
EIF4EBP1 (UniProt Q13541)	0.998 ± 0.1
NFX1 (UniProt Q12986)	1.05 ± 0.047
UniProt Q13428-3|Q13428-7|E7ETY2 and related entries	1.2 ± 0.042
GOLGA3 (UniProt Q08378)	1.02 ± 0.038
CHAF1B (UniProt Q13112)	1.01 ± 0.011
UniProt Q12904	0.95 ± 0.11
UniProt Q13561 and related entries	0.964 ± 0.041

Target	NP40-soluble protein abundance
UniProt Q13191 and related entries	1.016 ± 0.0079
UniProt Q13459 and related entries	1.05 ± 0.087
MORC3 (UniProt Q14149)	1.02 ± 0.018
PDCL (UniProt Q13371)	0.969 ± 0.056
UniProt Q15013 and related entries	0.999 ± 0.053
UniProt Q14157 and related entries	1.07 ± 0.021
GAMT (UniProt Q14353)	1.02 ± 0.032
WTAP (UniProt Q15007)	1.03 ± 0.016
IQGAP2 (UniProt Q13576)	0.94 ± 0.051
UniProt Q13164	1.03 ± 0.024
ITK (UniProt Q08881)	0.861 ± 0.019
UniProt Q14161 and related entries	0.991 ± 0.015
GRAP (UniProt Q13588)	0.988 ± 0.037
UniProt Q12888 and related entries	0.997 ± 0.041
PRDX4 (UniProt Q13162)	0.933 ± 0.015
UniProt Q15084 and related entries	0.9386 ± 0.0066
TMEM115 (UniProt Q12893)	0.966 ± 0.045
UniProt Q13163 and related entries	1.02 ± 0.057
